Measured values reported in patent US7425557B2, “Inhibitors of glycogen synthase kinase 3” (Novartis Vaccines and Diagnostics, Inc., priority 1998, dated 2008).
At least one structure is not confirmed: it was looked up by name or label, or the drawing left a doubt. Some entries share one result that the patent states for a list of compounds.

Amino acid sequences for entries named in this document (tags omitted). A change or cut given only in a name is not applied to a line headed by its entry.
UniProt P49841: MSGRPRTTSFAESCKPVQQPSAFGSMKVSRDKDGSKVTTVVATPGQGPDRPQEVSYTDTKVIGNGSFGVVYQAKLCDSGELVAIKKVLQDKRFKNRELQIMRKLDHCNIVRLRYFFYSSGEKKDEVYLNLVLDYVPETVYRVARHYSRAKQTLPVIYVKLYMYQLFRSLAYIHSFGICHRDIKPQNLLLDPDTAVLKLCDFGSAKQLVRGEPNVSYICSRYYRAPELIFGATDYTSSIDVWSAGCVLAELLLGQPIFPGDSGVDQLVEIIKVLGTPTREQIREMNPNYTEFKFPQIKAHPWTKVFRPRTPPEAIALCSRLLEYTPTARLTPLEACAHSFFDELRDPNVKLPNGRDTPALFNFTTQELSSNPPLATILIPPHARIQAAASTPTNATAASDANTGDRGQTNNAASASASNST

Experiments:
human GSK3β = human GSK3β (Homo sapiens, UniProt P49841); test: Screening for GSK3 inhibitory activity using a cell-free assay; format: biochemical; conditions: read-out: IC50 with respect to GSK3
Description: This amount represents the amount of radiolabeled phosphate incorporated into the peptide substrate.
The captured radiolabeled peptide substrate can be quantitated in a scintillation counter using known methods. […] If an inhibitor is present during the reaction, GSK3 activity will be reduced, and a smaller quantity of radiolabeled phosphate will thus be incorporated into the peptide substrate.
Pyrimidine and pyridine compounds of the present invention were dissolved in DMSO, then tested for inhibition of human GSK3β (the nucleotide sequence for human GSK3β appears in GenBank under Accession No. L33801).
While the reaction was proceeding, streptavidin-coated Labsystems “Combiplate 8” capture plates (Labsystems, Helsinki, Finland) were blocked by incubating them with 300 μl/well of PBS containing 1% bovine serum albumin for at least one hour at room temperature. The blocking solution was then removed by aspiration, and the capture plates were filled with 100 ul/well of stopping reagent (50 μM ATP/20 mM EDTA).
When the three hour enzyme reaction was finished, triplicate 100 μl aliquots of each reaction mix were transferred to three wells containing stopping solution, one well on each of the three capture plates, and the well contents were mixed well. […] Finally, 200 μl of Microscint-20 scintillation fluid was added to each well of the plate. The plates were coated with plate sealers, then left on a shaker for 30 minutes. Each capture plate was counted in a Packard TopCount scintillation counter (Meridian, Conn.) and the results were plotted as a function of compound concentration.

db/db mice = test: Diabetic mouse glucose tolerance test; format: in vivo; conditions: dosed orally for at least several days at either 60 or 100 mg/kg/day

Molecule: 3-amino-1-[6-{[2-({6-amino-5-[hydroxy(oxido)amino]-2-pyridinyl}-amino)ethyl]amino}-2-(2,4-dichlorophenyl)-3-pyridinyl]-2-piperidinone
- IC50 (human GSK3β): ≤ 10 µM

Molecule: 4-(2-{[3-(4-nitroimidazolyl)propyl]amino}pyrimidin-4-yl)benzamide
- IC50 (human GSK3β): ≤ 1 µM

Molecule: 4-(2-{[3-(4-phenylimidazolyl)-propyl]amino}pyrimidin-4-yl)benzenecarbonitrile
- IC50 (human GSK3β): ≤ 10 µM

Molecule: 4-[2-({2-[(5-nitro(2-pyridyl))amino]-ethyl}amino)-5-(piperazinylcarbonyl)pyrimidin-4-yl]benzenecarbonitrile
- IC50 (human GSK3β): ≤ 1 µM

Molecule: 4-[2-({3-[4-(2,4-dichlorophenyl)imidazolyl]-propyl}amino)pyrimidin-4-yl]benzamide
- IC50 (human GSK3β): ≤ 10 µM

Molecule: 4-[2-({3-[4-(3-methoxyphenyl)imidazolyl]-propyl}amino)pyrimidin-4-yl]benzamide
- IC50 (human GSK3β): ≤ 10 µM

Molecule: 4-[6-{[2-({6-amino-5-[hydroxy(oxido)amino]-2-pyridinyl}amino)ethyl]-amino}-3-(4-methyl-2-oxo-1-piperazinyl)-2-pyridinyl]benzamide
- IC50 (human GSK3β): ≤ 10 µM

Molecule: 4-[6-{[2-({6-amino-5-[hydroxy(oxido)amino]-2-pyridinyl}amino)ethyl]amino}-2-(2,4-dichlorophenyl)-3-pyridinyl]-3-morpholinone
- IC50 (human GSK3β): ≤ 10 µM

Molecule: 4-[6-{[2-({6-amino-5-[hydroxy(oxido)amino]-2-pyridinyl}amino)ethyl]amino}-3-(4-ethyl-2-oxo-1-piperazinyl)-2-pyridinyl]benzonitrile
- IC50 (human GSK3β): ≤ 10 µM

Molecule: 4-[6-{[2-({6-amino-5-[hydroxy(oxido)amino]-2-pyridinyl}amino)ethyl]amino}-3-(4-methyl-2-oxo-1-piperazinyl)-2-pyridinyl]benzonitrile
- IC50 (human GSK3β): ≤ 10 µM

Molecule: 4-acetyl-1-[6-{[2-({6-amino-5-[hydroxy(oxido)amino]-2-pyridinyl}amino)ethyl]amino}-2-(2,4-dichlorophenyl)-3-pyridinyl]-2-piperazinone
- IC50 (human GSK3β): ≤ 10 µM

Molecule: 4-{2-[4-(2-methoxy-phenyl)piperazinyl]pyrimidin-4-yl}benzamide
- IC50 (human GSK3β): ≤ 10 µM

Molecule: 4-{2-[4-benzylpiperazinyl]pyrimidin-4-yl}benzamide
- IC50 (human GSK3β): ≤ 10 µM

Molecule: 4-{2-[(3-benzimidazolylpropyl)amino]pyrimidin-4-yl}-2-methoxyphenol
- IC50 (human GSK3β): ≤ 1 µM

Molecule: 4-{2-[(3-imidazolylpropyl)amino]-pyrimidin-4-yl}benzamide
- IC50 (human GSK3β): ≤ 10 µM

Molecule: 4-{2-[(3-naphthyloxypropyl)-amino]pyrimidin-4-yl}benzamide
- IC50 (human GSK3β): ≤ 1 µM

Molecule: 4-{2-[(naphthylmethyl)amino]pyrimidin-4-yl}benzamide
- IC50 (human GSK3β): ≤ 10 µM

Molecule: CN1CCN(c2cnc(NCCNc3ccc([N+](=O)[O-])c(N)n3)nc2-c2ccc(Cl)cc2Cl)C(=O)C1 [1-[2-{[2-({6-amino-5-[hydroxy(oxido)amino]-2-pyridinyl}amino)ethyl]amino}-4-(2,4-dichlorophenyl)-5-pyrimidinyl]-4-methyl-2-piperazinone]
- IC50 (human GSK3β): ≤ 10 µM

Molecule: CN1CCN(c2ccc(NCCNc3ccc([N+](=O)[O-])c(N)n3)nc2-c2ccc(Cl)cc2Cl)C(=O)C1 [1-[6-{[2-({6-amino-5-[hydroxy(oxido)amino]-2-pyridinyl}amino)ethyl]-amino}-2-(2,4-dichlorophenyl)-3-pyridinyl]-4-methyl-2-piperazinone]
- IC50 (human GSK3β): ≤ 10 µM

Molecule: NC(=O)c1ccc(-c2ccnc(NCCCn3cnc(-c4ccccc4)c3)n2)cc1 [4-(2-{[3-(4-phenylimidazolyl)propyl]amino}pyrimidin-4-yl)benzamide]
- IC50 (human GSK3β): ≤ 1 µM

Molecule: NC(=O)c1ccc(-c2ccnc(NCCCn3cnc4cc(Cl)c(Cl)cc43)n2)cc1 [4-(2-{[3-(5,6-dichlorobenzimidazolyl)propyl]amino}pyrimidin-4-yl)benzamide]
- IC50 (human GSK3β): ≤ 1 µM

Molecule: Cc1cc2ncn(CCCNc3nccc(-c4ccc(C(N)=O)cc4)n3)c2cc1C [4-(2-{[3-(5,6-dimethylbenzimidazolyl)-propyl]amino}pyrimidin-4-yl)benzamide]
- IC50 (human GSK3β): ≤ 1 µM

Molecule: Oc1ccc(-c2ccnc(NCCCn3cnc4ccccc43)n2)cc1Cl [4-{2-[(3-benzimidazolylpropyl)-amino]pyrimidin-4-yl}-2-chlorophenol]
- IC50 (human GSK3β): ≤ 10 µM

Molecule: NC(=O)c1ccc(-c2ccnc(NCCCn3cnc4ccccc43)n2)cc1 [4-{2-[(3-benzimidazolylpropyl)amino]pyrimidin-4-yl}benzamide]
- IC50 (human GSK3β): ≤ 1 µM

Molecule: c1ccc2c(c1)ncn2CCCNc1nccc(-c2ccc(-n3ccnc3)cc2)n1 [(3-benzimidazolylpropyl)[4-(4-imidazolyl-phenyl)pyrimidin-2-yl]amine]
- IC50 (human GSK3β): ≤ 10 µM

Molecule: O=C(NCc1cccc2ccccc12)c1ccc(-c2ccnc(NCCNc3ccc([N+](=O)[O-])cn3)n2)cc1 [N-(naphthylmethyl){4-[2-({2-[(5-nitro(2-pyridyl))amino]ethyl}amino)pyrimidin-4-yl]phenyl}-carboxamide]
- IC50 (human GSK3β): ≤ 10 µM

Molecule: Cc1c(C)c2c(c(C)c1O)CCC(C)(COc1ccc(CC3SC(=O)NC3=O)cc1)O2 (stereo not shown) [Troglitazone]
- efficacy (glucose AUC reduction) compared with the representative compounds (db/db mice): comparable

Molecule: [O-][NH+](O)c1ccc(NCCNc2ncc(N3CCNCC3)c(-c3ccc(Cl)cc3Cl)n2)nc1 (stereo not shown) [[4-(2,4-dichlorophenyl)-5-piperazinylpyrimidin-2-yl]{2-[(5-nitro(2-pyridyl))amino]ethyl}amine]
- IC50 (human GSK3β): ≤ 1 µM

Molecule: O=[N+]([O-])c1ccc(NCCNc2nccc(-c3ccc(-n4cnc5ccccc54)cc3)n2)nc1 [[4-(4-benzimidazolylphenyl)pyrimidin-2-yl]{2-[(5-nitro(2-pyridyl))amino]ethyl}amine]
- IC50 (human GSK3β): ≤ 10 µM

Molecule: c1ccc(NCCNc2nccc(-c3ccc(-n4ccnc4)cc3)n2)nc1 [[4-(4-imidazolylphenyl)pyrimidin-2-yl][2-(2-pyridylamino)ethyl]amine]
- IC50 (human GSK3β): ≤ 10 µM

Molecule: CCOC(=O)c1cnc(NCCNc2ccc([N+](=O)[O-])cn2)nc1-c1ccc(-n2ccnc2)cc1 [ethyl 4-(4-imidazolylphenyl)-2-({2-[(5-nitro(2-pyridyl))amino]ethyl}amino)pyrimidine-5-carboxylate]
- IC50 (human GSK3β): ≤ 1 µM

Molecule: N-(3-imidazolylpropyl){4-[2-({2-[(5-nitro(2-pyridyl)) amino]ethyl}amino)-pyrimidin-4-yl]phenyl}carboxamide
- IC50 (human GSK3β): ≤ 10 µM

Molecule: N-[(3-bromophenyl)methyl](4-{2-[(3-imidazolylpropyl)amino]pyrimidin-4-yl}phenyl)-carboxamide
- IC50 (human GSK3β): ≤ 10 µM

Molecule: [4-(2,4-dichlorophenyl)-5-imidazol-2-ylpyrimidin-2-yl]methyl {2-[(5-nitro(2-pyridyl))-amino]ethyl}amine
- IC50 (human GSK3β): ≤ 1 µM

Molecule: [4-(2,4-dichlorophenyl)-5-imidazolylpyrimidin-2-yl]{2-[(5-nitro(2-pyridyl))amino]ethyl}amine
- IC50 (human GSK3β): ≤ 1 µM

Molecule: [4-(2,4-dimethylphenyl)-5-imidazolylpyrimidin-2-yl]{2-[(5-nitro(2-pyridyl))amino]ethyl}amine
- IC50 (human GSK3β): ≤ 1 µM

Molecule: [4-(4-imidazolylphenyl)pyrimidin-2-yl]{2-[(5-nitro(2-pyridyl))amino]ethyl}amine
- IC50 (human GSK3β): ≤ 1 µM

Molecule: ethyl 4-[4-(4-methylpiperazinyl)phenyl]-2-({2-[(5-nitro(2-pyridyl))amino]ethyl}amino)pyrimidine-5-carboxylate
- IC50 (human GSK3β): ≤ 10 µM

Molecule: ethyl 4-[4-(methylethyl)phenyl]-2-({2-[(5-nitro(2-pyridyl))amino]ethyl}amino)pyrimidine-5-carboxylate
- IC50 (human GSK3β): ≤ 1 µM

Molecule: ethyl 4-naphthyl-2-({2-[(5-nitro(2-pyridyl))amino]ethyl}amino)pyrimidine-5-carboxylate
- IC50 (human GSK3β): ≤ 10 µM
